In PubChem BioAssay AID493014 (National Center for Advancing Translational Sciences (NCATS), 2011):
About 170 (0.05%) of roughly 340,000 compounds were called active. The inconclusive results got no clear call from the source; some entries with a clear call stand among them for comparison. The call rests on the fitted dose curve; in most records, active means well fitted inhibition curve with a large enough effect in the signal ratio, with a control signal flat (not every such curve was filed as active); inconclusive means small, poorly fitted or top-dose-only effect, or effect the other way, or a change in a side signal; inactive means flat fitted curve, though single readings scatter; the % refers to the signal ratio. A potency beside an inconclusive call is a rough fit, not a confirmed value.

Experiment: qHTS Assay to Find Inhibitors of Chronic Active B-Cell Receptor Signaling;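 on activity change, negative = inhibition: plate controls were basal doxycycline-induced cells for no effect and cells given 10 µM MG132 for full effect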
Conditions: ABC-DLBCL IkBa-CBG/CBR reporter, luminescence ratio (green luciferase fused to IkBa over red control in TMD8 lymphoma cells), 4 h; activity change, negative = inhibition: at 46.1 µM (top of the series)
Method in brief: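 Doxycycline induced both beetle luciferases in TMD8 lymphoma cells; IKK-driven degradation limits the IkappaBalpha-fused green signal, while red luminescence normalises for cell number and nonspecific effects. Compounds tested up to 46 uM, 4 hrs.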
Potency means the concentration at half of the fitted maximal effect.

Compound | activity change, negative = inhibition | Potency
COc1ccc(OC)c(CN2CCN(CC(=O)Nc3ccccc3C(=O)NC3CC3)CC2)c1 | inconclusive: -1.24% | –
Cn1c(SCc2ccc(C(=O)Nc3nccs3)cc2)nnc1-c1ccccc1 | – | inconclusive: 0.411 µM [rising, full curve, poor fit]
c1ccc(-c2ncc(-c3ccn[nH]3)s2)cc1 | – | inconclusive: 25.1 µM [falling, single point]
O=C(Oc1coc(CSc2ncccn2)cc1=O)c1ccco1 | inactive: 7.25% | –
Cc1csc(NC(=O)c2c(-c3c(Cl)cccc3Cl)noc2C)n1 | inactive: 26% | –
COc1ccc(Cn2c(=N)c(C(=O)NCC3CCCO3)cc3c(=O)n4ccccc4nc32)cc1 (configuration not stated) | inconclusive: -0.411% | –
c1ccc(-c2csc(-c3ccc(-c4csnn4)cc3)n2)cc1 | inconclusive: 19.4% | –
CC(=O)NCCC(=O)N1CCCC(N(C)CCc2ccccc2)C1 (configuration not stated) | inactive: 7.37% | –
CC1=NN(C(=O)CSCc2ccccc2)C(O)(c2ccccc2)C1 (configuration not stated) | – | inconclusive: 14.1 µM [falling, partial curve, poor fit]
CCOc1cc(/C=N\NC(=O)c2ccc(NC(=O)C(C)(C)C)cc2)ccc1OC(=O)c1ccc(OC)cc1 | inconclusive: 1.99% | –
O=C1c2ccccc2-c2nc3ccccc3nc21 | – | inconclusive: 1.64 µM [rising, full curve, poor fit]
Cc1c(C#N)sc2nc(-c3ccccc3)nc(N3CCCC3)c12 | inconclusive: -4.1% | –
COc1cccc(N(C(=O)c2sc(C)nc2C)C(C(=O)NCC2CCCO2)c2ccccc2)c1 (configuration not stated) | inactive: 0.197% | –
O=C(/C=C/c1ccc(F)cc1)NC(=S)N1CCN(Cc2ccccc2)CC1 | – | inconclusive: 15.8 µM [falling, single point]
COc1ccccc1C(=O)N(CCN(C)C)c1nc2cc(C)cc(C)c2s1 | inconclusive: -15.7% | –
Fc1ccccc1N1CCN(Cc2cc(-c3ccccc3)on2)CC1 | inconclusive: -6.63% | –
COCCN(C(=O)C(C)C)c1nnc(-c2ccc(C(C)(C)C)cc2)s1 | inconclusive: 4.62% | –
CC(C)(C)C(=O)N/C(N)=N/c1nc2ccccc2o1 | – | inconclusive: 25.1 µM [falling, partial curve]
N/C(=N\OC(=O)c1ccc(Cl)cc1)c1ccn[nH]1 | inconclusive: -19.2% | –
CC(C)n1cnc2c(N(C)c3ccccc3)nc(N(CCN(C)C)Cc3ccccc3)nc21 | – | inconclusive: 12.6 µM [falling, partial curve]
O=C(c1cccnc1NCc1ccc(F)cc1)N1CCOCC1 | inconclusive: -0.0398% | –

A draw from above in order of count of non-hydrogen atoms, falling:
Compound | activity change, negative = inhibition | Potency
COc1ccc(OC)c(CN2CCN(CC(=O)Nc3ccccc3C(=O)NC3CC3)CC2)c1 | inconclusive: -1.24% | –
COc1ccccc1C(=O)N(CCN(C)C)c1nc2cc(C)cc(C)c2s1 | inconclusive: -15.7% | –
O=C(Oc1coc(CSc2ncccn2)cc1=O)c1ccco1 | inactive: 7.25% | –

(continued)

Compound | activity change, negative = inhibition | Potency
O=C1c2ccccc2-c2nnc(-c3ccc(F)cc3)cc21 | inactive: 0.386% | –
N#CCCn1nnc(-c2ccccc2F)n1 | inconclusive: -7.16% | –
OCCNCC(O)CN1c2ccccc2Sc2ccccc21 (configuration not stated) | inconclusive: -8.04% | –
COc1ccc(C(=O)NCCOc2ccccc2Cl)c(OC)c1OC | inconclusive: 1.1% | –
Cc1nn(-c2ccccc2)c(Cl)c1C(=O)Nc1c(C)n(C)n(-c2ccccc2)c1=O | inconclusive: -7.86% | –
CCN(CC)S(=O)(=O)c1ccc(N2CCOCC2)c(NC(=O)Cc2cccc3ccccc23)c1 | inconclusive: 3.91% | –
O=C(NC12CC3CC(CC(C3)C1)C2)c1cccnc1Cl | inactive: -0.279% | –
O=C(CSc1nc(-c2ccccc2)cs1)NCCN1C(=O)CSC1=O | inconclusive: 4.81% | –
Cc1cc(Cl)ccc1OCc1cn2cccnc2n1 | inconclusive: 2.32% | –
COc1cc(/C=C(\C#N)C(=O)Nc2ccccn2)ccc1O | – | inconclusive: 25.1 µM [falling, single point]
C=CCn1nc2n(c1=O)-c1ccccc1SC2 | inconclusive: 22.6% | –
Cc1noc(C)c1C(=O)N(C)CC(=O)Nc1ccc(F)c(F)c1F | inconclusive: 23.7% | –
COc1ccc(NC(=O)c2oc3ccccc3c2NC(=O)C2CC2)cc1OC | inconclusive: 1.31% | –
CCn1cc(C(=O)Nc2ccc(OC)c(OC)c2)c2cc(OC)c(OC)cc2c1=O | – | inconclusive: 0.0651 µM [falling, full curve, poor fit]
COc1ccc(N2CCN(C(=O)[C@@H]3CCCN3C3=NS(=O)(=O)c4ccccc43)CC2)cc1 | inactive: -0.413% | –
O=C(Nc1cc(Cl)ccc1N1CCOCC1)c1cc2ccccc2o1 | – | inconclusive: 0.501 µM [falling, full curve, poor fit]
Cc1ccc(-c2nn(-c3ccccc3)cc2CNCc2ccccc2)cc1 | – | inconclusive: 17.8 µM [falling, single point]
O=C(C[n+]1ccc(Cc2ccccc2)cc1)Nc1ccccc1 | – | inconclusive: 25.1 µM [falling, partial curve]
Cn1c(SCC(=O)NCC2CCCO2)nc2c([nH]c3ccccc32)c1=O (configuration not stated) | inconclusive: 21% | –
CCOC(=O)c1c(C)[nH]c(C(=O)COC(=O)CCC2CCCC2)c1C | inconclusive: 20% | –
O=c1cc(-c2ccccc2)nc2cc(-c3ccc(Br)cc3)[nH]n12 | inconclusive: -137% | –

Compound | activity change, negative = inhibition | Potency
CCOc1ccc2nc(N3CCCC(C(=O)NCCCN4CCCCC4)C3)sc2c1 (configuration not stated) | – | inconclusive: 14.1 µM [falling, single point]
CCNC(=O)c1cc(S(=O)(=O)N(C)C)c(Cl)cc1Cl | inconclusive: 9.67% | –
O=C(COc1ccc(-c2ccccc2)cc1)N1CCN(C(=O)c2cccs2)CC1 | inactive: 2.55% | –
Oc1ccc(C[C@@H]2CNC(=S)N2CCCCC2CCCCC2)cc1 | inactive: -15.2% | –
CC(=O)c1ccc(N=c2scc(C)n2C(C)C)cc1 | inconclusive: 17.6% | –
CCCN(CC(=O)Nc1ccccc1C)C(=O)c1ccc(-c2ccc(C(C)=O)cc2)o1 | inconclusive: 10.7% | –
O=[N+]([O-])c1ccc(CN2CCN(c3ccc(F)cc3)CC2)o1 | inactive: 7.58% | –
CCOC(=O)c1c(-c2ccccc2)oc2ccc(OC(C)C(=O)O)cc12 (configuration not stated) | – | inconclusive: 22.4 µM [rising, single point]
COC(=O)c1ccc2c(c1)C(C)(C)C(/C=C/c1ccc(O)cc1)=[N+]2C | – | inconclusive: 5.17 µM [falling, single point]
COc1ccc(C(c2nnnn2C2CCCC2)N2CCC(C)CC2)cc1 (configuration not stated) | inactive: 6.73% | –
COc1ccc(NC(=O)/C(C#N)=C\c2cc(C)n(-c3ccc4c(c3)OCO4)c2C)cc1 | – | inconclusive: 4.61 µM [falling, partial curve, poor fit]
CCOC(=O)C1=C(C)C(c2ccccc2O)NC(=O)N1 (configuration not stated) | inconclusive: 0.385% | –
Cc1ccc(-c2nc3ncccc3o2)cc1NC(=O)c1ccc([N+](=O)[O-])o1 | inactive: -12.2% | –
CC(=O)Nc1ccc(/C=N/N2C(=O)NC(C)(c3ccc(OC(F)F)cc3)C2=O)cc1 (configuration not stated) | – | inconclusive: 22.4 µM [falling, single point]
CCCN(CC(=O)Nc1cc(Cl)ccc1Cl)C(=O)CN1C(=O)C2CCCCC2C1=O (configuration not stated) | inconclusive: -6.35% | –
CC(C)c1cc(C(=O)N/N=C/c2c[nH]c3ccccc23)n[nH]1 | – | inconclusive: 31.6 µM [falling, partial curve, poor fit]
COc1ccccc1C(=O)Nc1ccc(Cc2ccncc2)cc1 | inactive: -2.56% | –
COC(=O)C1CCN(C(=O)Cc2ccc(Br)cc2)CC1 | inconclusive: 6.66% | –
COc1ccc(NC(=S)NC2CC3CCCC(C2)N3C2CC2)cc1 (configuration not stated) | inconclusive: -93.8% | –
COc1ccc(-c2oc(=O)c3cc(OC)c(OC)cc3c2-c2cc(F)cc(OC)c2)cc1 | inconclusive: -15.9% | –
Cc1ccc(C2C(C#N)=C(N)Oc3cc4c(cc32)OCO4)cc1 (configuration not stated) | inactive: -1.44% | –

Compound | activity change, negative = inhibition | Potency
CC(c1cccs1)N(C(=O)Nc1ccccc1)C1CCCCC1 (configuration not stated) | inactive: -9.55% | –
Cc1cccc(C(=O)NC(=S)N(C)C2CCCCC2)c1 | inconclusive: 0.377% | –
CCOc1ccccc1NC(=O)CCNC(=O)c1ccc(Cl)cc1 | inconclusive: 22.1% | –
Cc1c(Nc2nc(-c3cccc([N+](=O)[O-])c3)cs2)c(=O)n(-c2ccccc2)n1C | inactive: 6.65% | –
CCc1cc(C(=O)Cc2nc3ccccc3s2)c(O)cc1OCC(=O)O | inconclusive: -8.31% | –
COc1ccc(C#Cc2ccc3c(=O)c4ccccc4n(C)c3c2)cc1 | inactive: 15% | –
O=[N+]([O-])c1ccc(S(=O)(=O)NCC(c2ccco2)N2CCc3ccccc3C2)cc1 (configuration not stated) | inactive: -10.2% | –
N#C/C(=C(\O)CCl)c1nnc2n1CCCCC2 | inconclusive: 0.128% | –
Cc1c(/C(O)=C2\C(=O)C(=O)N(CCN(C)C)C2c2cccs2)cnn1-c1ccccc1 (configuration not stated) | – | inconclusive: 0.355 µM [rising, partial curve, poor fit]
C/C(=N\NC(=O)C1CC1)c1ccc(OC(F)F)cc1OC(F)F | inactive: 3.63% | –
O=C(NCCOCCNC(=O)OCc1ccccc1)OCc1ccccc1 | inconclusive: -5.18% | –
CCOC(=O)N1CCN(C(=O)C(C)n2nc(C)n3c(cc4sccc43)c2=O)CC1 (configuration not stated) | inconclusive: -24.8% | –
CC(C)NC(=O)c1cc2c(=O)n3ccccc3nc2s1 | inconclusive: -1.14% | –
C(=N\Nc1nc(Nc2ccccc2)nc(Nc2ccccc2)n1)/c1ccncc1 | inactive: 2.81% | –
CCc1ccc(OCC(=O)NCCc2ccc3c(c2)OCCO3)cc1 | inconclusive: 1.67% | –
O=C(Nc1nccs1)C(c1ccccc1)N1CCCCC1 (configuration not stated) | – | inconclusive: 5.01 µM [rising, full curve, poor fit]
COc1ccc(CCNC(=O)c2cc(-c3ccccc3OC)on2)cc1OC | – | inconclusive: 11.2 µM [falling, partial curve]
COc1ccc(-n2c(=S)[nH]c3cc(C(=O)NCc4cccnc4)ccc3c2=O)c(OC)c1 | inactive: -6.32% | –
COc1ccc(-c2csc(-c3ccc(C(=O)O)cc3)n2)cc1 | – | inconclusive: 11.2 µM [falling, partial curve]

Given with tabs: 2 of the compounds above.
Compound	activity change, negative = inhibition	Potency
CC(=O)NCCC(=O)N1CCCC(N(C)CCc2ccccc2)C1 (configuration not stated)	inactive: 7.37%	–
Cc1ccc(C2C(C#N)=C(N)Oc3cc4c(cc32)OCO4)cc1 (configuration not stated)	inactive: -1.44%	–
